Experimental findings from paper PMC6504893 are described below.

Amino acid sequences for entries named in this document (tags omitted).
UniProt Q9UBF8: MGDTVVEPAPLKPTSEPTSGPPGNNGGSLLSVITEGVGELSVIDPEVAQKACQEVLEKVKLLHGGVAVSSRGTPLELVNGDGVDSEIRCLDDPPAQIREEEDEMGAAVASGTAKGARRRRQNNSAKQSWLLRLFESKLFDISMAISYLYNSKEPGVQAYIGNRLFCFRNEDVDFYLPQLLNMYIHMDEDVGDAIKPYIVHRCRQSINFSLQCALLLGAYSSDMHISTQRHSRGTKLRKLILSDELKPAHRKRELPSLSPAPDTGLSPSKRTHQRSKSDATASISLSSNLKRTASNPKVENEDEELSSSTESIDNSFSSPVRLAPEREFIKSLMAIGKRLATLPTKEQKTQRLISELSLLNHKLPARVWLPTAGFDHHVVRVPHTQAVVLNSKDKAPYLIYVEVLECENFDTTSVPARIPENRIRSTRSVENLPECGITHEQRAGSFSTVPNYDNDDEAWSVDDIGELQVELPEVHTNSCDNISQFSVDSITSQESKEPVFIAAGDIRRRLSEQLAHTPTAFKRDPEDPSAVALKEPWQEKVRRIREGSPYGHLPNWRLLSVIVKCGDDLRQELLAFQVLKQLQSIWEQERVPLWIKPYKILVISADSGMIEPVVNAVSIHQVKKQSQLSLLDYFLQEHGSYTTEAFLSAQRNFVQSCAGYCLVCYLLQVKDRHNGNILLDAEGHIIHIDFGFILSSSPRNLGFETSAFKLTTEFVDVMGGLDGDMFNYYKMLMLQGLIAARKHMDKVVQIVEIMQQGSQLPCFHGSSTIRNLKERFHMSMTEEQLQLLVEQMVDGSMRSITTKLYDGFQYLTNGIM
UniProt Q9BTU6: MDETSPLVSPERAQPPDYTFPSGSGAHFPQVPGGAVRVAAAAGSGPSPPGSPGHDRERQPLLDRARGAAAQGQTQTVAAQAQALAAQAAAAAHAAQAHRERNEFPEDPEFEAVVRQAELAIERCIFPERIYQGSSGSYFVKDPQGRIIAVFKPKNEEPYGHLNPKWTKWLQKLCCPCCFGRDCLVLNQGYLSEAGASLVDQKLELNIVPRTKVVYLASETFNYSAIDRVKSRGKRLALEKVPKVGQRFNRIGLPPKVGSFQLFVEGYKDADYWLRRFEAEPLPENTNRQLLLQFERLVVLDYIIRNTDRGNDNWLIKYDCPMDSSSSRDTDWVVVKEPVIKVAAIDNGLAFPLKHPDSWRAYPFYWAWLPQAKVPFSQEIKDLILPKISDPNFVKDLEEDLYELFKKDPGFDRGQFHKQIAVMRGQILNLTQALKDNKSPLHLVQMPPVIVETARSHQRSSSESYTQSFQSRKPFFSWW

The target in test [1] is T1, GFP-ATG13 (UniProt O75143).
T1 sequence: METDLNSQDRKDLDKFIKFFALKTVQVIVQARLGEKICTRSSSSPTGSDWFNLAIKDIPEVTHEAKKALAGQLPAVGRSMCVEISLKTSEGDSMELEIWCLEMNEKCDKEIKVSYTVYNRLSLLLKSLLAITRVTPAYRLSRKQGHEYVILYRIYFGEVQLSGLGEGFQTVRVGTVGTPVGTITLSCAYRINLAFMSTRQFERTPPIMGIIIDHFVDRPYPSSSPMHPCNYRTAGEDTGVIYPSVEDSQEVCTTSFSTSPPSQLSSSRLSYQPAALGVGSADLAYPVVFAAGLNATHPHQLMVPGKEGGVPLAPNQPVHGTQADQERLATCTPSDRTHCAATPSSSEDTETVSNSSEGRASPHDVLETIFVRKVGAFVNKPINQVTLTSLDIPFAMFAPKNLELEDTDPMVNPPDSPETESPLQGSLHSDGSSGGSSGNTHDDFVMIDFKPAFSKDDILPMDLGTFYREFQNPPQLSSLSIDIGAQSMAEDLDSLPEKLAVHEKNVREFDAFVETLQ
Kind of test: co-IP; GFP-TRAP beads, IP buffer (50 mM Tris pH 7.4, 150 mM NaCl, 5 mM EDTA, 1% Triton X-100); HEK293A cells incubated in ES for 2 h; immunoblot.

For test [2], the target named is T2, ATG9A (human (endogenous in HEK293A)) (UniProt Q7Z3C6).
T2 sequence: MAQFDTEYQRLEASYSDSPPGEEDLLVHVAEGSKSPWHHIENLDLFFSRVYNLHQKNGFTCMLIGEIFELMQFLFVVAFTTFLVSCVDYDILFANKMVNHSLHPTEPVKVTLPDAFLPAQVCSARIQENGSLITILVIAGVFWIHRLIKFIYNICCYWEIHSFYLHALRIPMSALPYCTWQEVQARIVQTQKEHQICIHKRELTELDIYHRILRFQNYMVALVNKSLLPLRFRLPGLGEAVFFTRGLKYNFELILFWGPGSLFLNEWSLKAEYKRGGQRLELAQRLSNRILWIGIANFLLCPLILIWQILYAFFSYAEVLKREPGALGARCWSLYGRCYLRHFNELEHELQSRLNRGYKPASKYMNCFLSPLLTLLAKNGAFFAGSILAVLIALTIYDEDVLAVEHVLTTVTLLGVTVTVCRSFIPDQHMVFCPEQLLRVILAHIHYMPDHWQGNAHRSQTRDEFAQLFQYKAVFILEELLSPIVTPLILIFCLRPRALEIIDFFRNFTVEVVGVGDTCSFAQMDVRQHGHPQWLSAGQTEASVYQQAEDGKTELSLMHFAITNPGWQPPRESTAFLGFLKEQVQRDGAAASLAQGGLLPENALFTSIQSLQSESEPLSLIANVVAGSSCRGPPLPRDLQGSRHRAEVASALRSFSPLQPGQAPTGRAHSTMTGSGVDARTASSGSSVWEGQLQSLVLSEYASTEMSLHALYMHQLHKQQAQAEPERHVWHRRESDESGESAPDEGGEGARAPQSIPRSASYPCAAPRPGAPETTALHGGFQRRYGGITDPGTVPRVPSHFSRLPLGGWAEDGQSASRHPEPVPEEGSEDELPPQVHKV
Nature of the test: co-IP; detergent-solubilized cells; IP buffer (50 mM Tris pH 7.4, 150 mM NaCl, 5 mM EDTA, 1% Triton X-100); rabbit anti-ATG9A or rabbit IgG control on protein A Dynabeads, overnight at 4°C; immunoblot. In general terms: Immunoblotting shows a protein as a band on a membrane.

No constants are given. Whether binding was seen depends on the method and setting. In cells and extracts the contact can be indirect. Some results given as binding are weak or reduced against the parent protein; the word gives no strength. For some of these results: Where a sequence is shown, tags or fusion partners need not be part of it.

With “activated PI4KIIIβ pSer294 (from UniProt Q9UBF8 1-816) (enzyme)”, the binding result in test [1] is given as “binds”.
For the substance “PI4KIIα (from UniProt Q9BTU6 1-479) (enzyme)”, in test [2], the binding result is on record as “binds”.
Consider “PI4KIIIβ (from UniProt Q9UBF8 1-816) (enzyme)”, for which the binding result in test [2] and in test [1] was “binds” in each case.
